For one molecule, binding results are on record in article PMC11053755.

The test addresses OsSHMT1 (rice serine hydroxymethyltransferase 1) (rice (Oryza sativa)) (UniProt Q10D68). The test can be described thus: two-hybrid; GAL4 system; OsSHMT coding regions in pGBKT7 (BD) and pGADT7 (AD), co-transfected into yeast AH109; grown on SD/-Leu/-Trp, then SD/-Leu/-Trp/-His/-Ade to verify interactions.

Results are given in words; binding and its absence hold for the method and conditions named. Some results given as binding are weak or reduced against the parent protein; the word gives no strength.

B1: OsSHMT1 (rice serine hydroxymethyltransferase 1) (enzyme, UniProt Q10D68 1-513)
chain: MAMATALRKLSSDALRRQPLSRITPLYYMASLPATEERSGVTWPKQLNAPLEEVDPEIADIIEHEKARQWKGLELIPSENFTSVSVMQAVGSVMTNKYSEGYPGARYYGGNEYIDMAESLCQKRALEAFRLDPAKWGVNVQPLSGSPANFHVYTALLKPHERIMALDLPHGGHLSHGYQTDTKKISAVSIFFETMPYRLDESTGLIDYDQMEKSAVLFRPKLIVAGASAYARLYDYDRMRKVCDKQKAILLADMAHISGLVAAGVVPSPFDYADVVTTTTHKSLRGPRGAMIFYRKGVKGVNKQGKEVMYDFEDKINAAVFPGLQGGPHNHTITGLAVALKQATTPEYRAYQEQVMSNCAKFAQSLTAKGYELVSGGTDNHLVLVNLKSKGIDGSRVEKVLENVHIAANKNTVPGDVSAMVPGGIRMGTPALTSRGFVEEDFAKVADFFDAAVNLALKVKAAAGGTKLKDFVATLQSDSNIQSEIAKLRHDVEEYAKQFPTIGFEKETMKYKN
As to B1, the binding result was “binds”.
